Results as given in patent US20220332791A1 (ALIVEGEN, published 2022).
Results are given in words; binding and its absence hold for the method and conditions named. Some results given as binding are weak or reduced against the parent protein; the word gives no strength. Where a sequence is shown, tags or fusion partners need not be part of it.

Assays:
BMP9 [1] = molecular target: T1, BMP9 (UniProt Q9UK05 320-429); experiment: automated ELISA on BMP9-coated beads (KinExA instrument), 100 pM, 1 nM and 10 nM; reference of the comparison
T1 sequence (looked up): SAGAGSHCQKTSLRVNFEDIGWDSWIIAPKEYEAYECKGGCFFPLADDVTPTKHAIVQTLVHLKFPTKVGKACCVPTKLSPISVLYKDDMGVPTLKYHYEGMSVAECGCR

BMP9 [2] = molecular target: T1, BMP9; experiment: KinExA
myostatin = molecular target: T2, myostatin (UniProt O14793 267-375); experiment: KinExA
T2 sequence (looked up): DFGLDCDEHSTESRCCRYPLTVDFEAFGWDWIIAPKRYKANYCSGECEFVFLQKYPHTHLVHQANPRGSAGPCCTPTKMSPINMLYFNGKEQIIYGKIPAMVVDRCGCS

activin A = molecular target: T3, activin A (UniProt P08476 311-426); experiment: KinExA
T3 sequence (looked up): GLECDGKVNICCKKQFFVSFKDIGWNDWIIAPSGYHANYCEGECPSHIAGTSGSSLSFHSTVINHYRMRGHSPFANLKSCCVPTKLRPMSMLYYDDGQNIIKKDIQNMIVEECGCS

BMP9 [3] = molecular target: T1, BMP9; experiment: automated ELISA on KinExA: BMP9-coupled Sepharose beads, captured Fc fusion detected with Alexa Fluor 647 goat anti-human Fc

Measured: binding

B1: wild-type ActRIIB-ECD-Fc fusion protein (Fc fusion)
chain: ETRECIYYNANWELERTNQSGLERCEGEQDKRLHCYASWRNSSGTIELVKKGCWLDDFNCYDRQECVATEENPQVYFCCCEGNFCNERFTHLPEAGGPEVTYEPPPTAPTGGGGSESKYGPPCPPCP
notes: also called WT ActRIIB-Fc; WT; not shown: human Fc domain
binds: all assays above

B2: hybrid ActRIIB ligand trap protein AG-0014 (SEQ ID NO: 16) (Fc fusion)
chain: ETRECIYYNANWELERTNQSGLERCYGDKDKRRHCYASWRNSSGTIELVKKGCWLDDFNCYDRQECVATEENPQVYFCCCEGNFCNERFTHLPEAGGPEVTYEPPPTAPTGGGGSESKYGPPCPPCP
notes: also called Hybrid Trap B; not shown: human Fc domain
binds: myostatin | activin A

B3: hybrid ActRIIB ligand trap protein AG-0027 (SEQ ID NO: 29) (Fc fusion)
chain: ETRECIYYNANWELERTNQSGLERCEGDQDKRLHCYASWRNSSGTIELVKKGCWLDDINCYDRQECVATKENPQVYFCCCEGNFCNERFTHLPEAGGPEVTYEPPPTAPTGGGGSESKYGPPCPPCP
notes: also called Hybrid Trap A; Hybrid Trap; not shown: human Fc domain
binds: myostatin | activin A
